Drawing on publication doi:10.1101/2020.10.12.335091, this text covers binding for 2 molecules.

Chains of the proteins cited; added tags and fusions are not shown. Lines headed by an entry give the natural chain unless they say otherwise; changes in a name come on top.
UniProt P16234: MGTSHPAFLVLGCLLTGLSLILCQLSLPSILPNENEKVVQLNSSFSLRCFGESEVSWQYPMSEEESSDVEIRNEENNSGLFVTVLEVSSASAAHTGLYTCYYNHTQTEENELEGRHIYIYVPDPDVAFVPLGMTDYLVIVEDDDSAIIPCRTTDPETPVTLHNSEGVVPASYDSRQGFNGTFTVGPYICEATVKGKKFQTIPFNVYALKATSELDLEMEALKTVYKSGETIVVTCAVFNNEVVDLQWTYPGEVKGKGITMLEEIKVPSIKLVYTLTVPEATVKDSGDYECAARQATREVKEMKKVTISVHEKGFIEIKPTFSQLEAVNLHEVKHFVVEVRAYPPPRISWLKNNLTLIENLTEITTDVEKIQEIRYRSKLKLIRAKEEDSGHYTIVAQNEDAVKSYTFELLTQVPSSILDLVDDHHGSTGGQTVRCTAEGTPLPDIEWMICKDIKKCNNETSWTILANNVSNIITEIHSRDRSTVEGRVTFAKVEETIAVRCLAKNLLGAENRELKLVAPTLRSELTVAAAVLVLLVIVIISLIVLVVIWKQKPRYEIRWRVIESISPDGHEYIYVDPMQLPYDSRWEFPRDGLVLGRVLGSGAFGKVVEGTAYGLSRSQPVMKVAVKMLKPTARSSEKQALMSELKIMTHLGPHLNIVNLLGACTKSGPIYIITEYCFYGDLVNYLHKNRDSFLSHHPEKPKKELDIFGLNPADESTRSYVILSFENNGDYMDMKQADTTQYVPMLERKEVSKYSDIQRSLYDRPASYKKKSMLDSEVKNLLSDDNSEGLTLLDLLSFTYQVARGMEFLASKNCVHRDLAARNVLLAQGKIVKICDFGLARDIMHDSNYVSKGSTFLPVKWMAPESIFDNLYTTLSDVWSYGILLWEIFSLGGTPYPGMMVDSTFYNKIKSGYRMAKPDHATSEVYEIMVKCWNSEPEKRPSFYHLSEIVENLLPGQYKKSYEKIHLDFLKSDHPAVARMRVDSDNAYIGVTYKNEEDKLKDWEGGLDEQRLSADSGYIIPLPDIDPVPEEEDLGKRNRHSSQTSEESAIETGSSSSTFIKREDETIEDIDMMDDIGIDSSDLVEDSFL

These are yes or no findings as the source states them, for the method shown. Some entries that bind do so weakly or less than the wild type. For some assays here: Tags and fused reporters may be left off the sequences shown.

In assay [1] the target is T1, Recombinant His-tagged Endocan (UniProt Q9NQ30).
T1 sequence: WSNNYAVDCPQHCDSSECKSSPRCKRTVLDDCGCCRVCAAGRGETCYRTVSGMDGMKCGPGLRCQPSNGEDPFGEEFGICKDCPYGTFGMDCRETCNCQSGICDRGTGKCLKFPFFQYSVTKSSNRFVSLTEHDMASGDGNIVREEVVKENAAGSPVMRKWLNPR
Briefly: pull-down.

The target of assay [2] is PDGFRA receptor, endogenous in patient-derived glioblastoma cells (human (endogenous in patient-derived gliomasphere lines)) (UniProt P16234). Briefly: flow cytometry on cells. (In flow cytometry, cells or beads pass a laser one at a time.)

With “Fc-tagged recombinant PDGFRA (from UniProt P16234 24-528) (Fc fusion)”, the binding entry in assay [1] is on record as “binds”.

B1: Recombinant Endocan labeled with Alexa488 (ligand, UniProt Q9NQ30 20-184)
chain: T1 sequence
modifications: Alexa Fluor 488 label (Microscale Protein Labeling Kit)
As for B1, the binding result in assay [2] is reported as “binds”.
